Laboratory results as given in ChEMBL document CHEMBL4513161, “CO-ADD screening of MMV (CH) - Pandemic Response Box” (2021).

Assays:
Staphylococcus aureus = conditions: ASSAY_TEST Inhibition of Bacterial Growth; detection method Absorption (OD600); MEDIA CAMHB; plate type 384well; NBS; CORNING #3640; time 18 hr
Pseudomonas aeruginosa = conditions: ASSAY_TEST Inhibition of Bacterial Growth; detection method Absorption (OD600); MEDIA CAMHB; plate type 384well; NBS; CORNING #3640; time 18 hr
Escherichia coli = conditions: ASSAY_TEST Inhibition of Bacterial Growth; detection method Absorption (OD600); MEDIA CAMHB; plate type 384well; NBS; CORNING #3640; time 18 hr
Klebsiella pneumoniae = conditions: ASSAY_TEST Inhibition of Bacterial Growth; detection method Absorption (OD600); MEDIA CAMHB; plate type 384well; NBS; CORNING #3640; time 18 hr
Candida albicans = conditions: ASSAY_TEST Inhibition of Fungal Growth; detection method Absorption (OD530); plate type 384well; NBS; CORNING #3640
Acinetobacter baumannii = conditions: ASSAY_TEST Inhibition of Bacterial Growth; detection method Absorption (OD600); MEDIA CAMHB; plate type 384well; NBS; CORNING #3640; time 18 hr

SMILES: Cl.Clc1ccc(COC(Cn2ccnc2)c2ccc(Cl)cc2Cl)c(Cl)c1 (stereo unspecified)
- MIC (Staphylococcus aureus): >20 µM
- MIC (Pseudomonas aeruginosa): >20 µM
- MIC (Escherichia coli): >20 µM
- MIC (Klebsiella pneumoniae): >20 µM
- MIC (Candida albicans): <=0.1562 uM
- MIC (Acinetobacter baumannii): >20 µM
